We go through three molecules from paper PMC11245600, “Therapeutic potential of the secreted Kazal-type serine protease inhibitor SPINK4 in colitis” (Nature Communications, 2024).

Results are given in words; binding and its absence hold for the method and conditions named. For some assays here: Binding seen in cells or lysates may run through a third protein. Some binding calls cover weakened binding; strength is not graded here. For some assays here: Sequences can lack the tags named with a protein.

In test [1] the target is T1, SPINK4, whole sequence, in vitro translated (wt) (UniProt O60575).
T1 sequence: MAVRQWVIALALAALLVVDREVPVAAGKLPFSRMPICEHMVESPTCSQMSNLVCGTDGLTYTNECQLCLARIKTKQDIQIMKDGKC
In words: pull-down; in vitro translated 3xFLAG SPINK4 (wt, mut1, mut2) incubated with recombinant extracellular EGFR; anti-FLAG magnetic beads; only the binder purified.

Test [2] deals with EGFR (epidermal growth factor receptor), endogenous, in membrane protein extract of intestinal epithelial cells (human (endogenous in NCM460 or Caco-2)) (UniProt P00533). Description: co-IP; concentrated medium of SPINK4-FLAG-overexpressing NCM460 or Caco-2 cells incubated with membrane protein extract at 4 °C overnight; anti-EGFR magnetic beads, IgG as control; washed in TBS-T.

Test [3] shares this target. In words: co-IP; human-derived rSPINK4 incubated in vitro with membrane protein extract; precipitated with anti-EGFR antibody beads; only the binder purified.
In test [4] the target is rEGFR-His (extracellular domain) (UniProt P00533). Description: ITC; rSPINK4-His (30 μM in 100 μL) titrated into rEGFR-His extracellular domain (6 μM in 300 μL); MicroCal PEAQ-ITC; control titration into PBS; both purified.
In test [5] the target is whole extracellular EGFR, in vitro translated (ED) (UniProt P00533). In words: pull-down; in vitro translated 3xFLAG EGFR extracellular domain or its deletions incubated with recombinant rSPINK4; anti-FLAG magnetic beads; only the binder purified.

In the case of “Fc-tagged extracellular section of EGFR (rEGFR) (from UniProt P00533 25-645) (Fc fusion)”, the binding result in test [1] is listed as “binds”.

B1: SPINK4-FLAG from the concentrated medium of SPINK4-FLAG-overexpressing cells (protein, UniProt O60575 27-86)
chain: GKLPFSRMPICEHMVESPTCSQMSNLVCGTDGLTYTNECQLCLARIKTKQDIQIMKDGKC
For B1, the binding result in test [2] is reported as “binds”.

B2: human-derived recombinant SPINK4 protein, His-tagged (rSPINK4-His) (natural protein, UniProt O60575 27-86, looked up)
chain: B1 chain
notes: Bought recombinant protein
In the case of B2, the binding entry in test [3] is on record as “binds”; in test [4] it was “binds weakly”; in test [5], “binds”.
